Values of other authors in patent US20260001962A1, “COMBINATION THERAPY METHODS WITH T-CELL ENGAGING MOLECULES FOR TREATMENT OF PROSTATE CANCER” (AMGEN INC., priority 2022, published 2026).
For at least one compound, name, drawing or mass did not settle the structure.

System: prostate cancer cells
Conditions: reported in literature

In the case of `C[C@]12CC[C@H](O)CC1=CC[C@@H]1[C@@H]2CC[C@]2(C)C(c3cccnc3)=CC[C@@H]12` [abiraterone], the “expression of PSMA on prostate cancer cells” value is given as “upregulate expression of PSMA”.
